From patent US6156724A (priority 1998, dated 2000)
“And” between values parts separate entries of the source, which are not always exact repeats. Equal entries are not always repeated. Numbered stars: 1 amine (or outer) side, 2 acyl side, 3 side chain; on linkers, the order of the positions; unused ones are H or OH. Bridge positions count the residues as written; N and C are the ends. Square brackets hold non-standard residues; d marks the D form. Peptide text beside a SMILES is read from it. * marks the point of attachment. X4 = CC[C@H](C)[C@@H](N[*:1])[C@@H](O)CC(=O)O[C@@H](C(C)C)[C@H](O)[C@H](C)C(=O)[*:2]; X5 = CC[C@@H](C)[C@@H](N[*:1])[C@@H](O)CC(=O)O[C@H](C(=O)[C@H](C)C(=O)[*:2])C(C)C; X1 = CC[C@H](C)[C@@H](N[*:1])[C@@H](O)CC(=O)O[C@H](C(=O)[C@H](C)C(=O)[*:2])C(C)C; X3 = CC[C@H](C)[C@H](N[*:1])[C@@H](O)CC(=O)O[C@H](C(=O)[C@H](C)C(=O)[*:2])C(C)C; NMeY = CN[C@@H](Cc1ccc(O)cc1)C(=O)O; Stearoyl = CCCCCCCCCCCCCCCCCC(=O)*; aThr = C[C@H](O)[C@H](N)C(=O)O; NMeL = CN[C@@H](CC(C)C)C(=O)O; dNMeL = CN[C@H](CC(C)C)C(=O)O; pGlu = O=C1CC[C@@H](C(=O)O)N1; Lauroyl = CCCCCCCCCCCC(=O)*; Pyruvoyl = CC(=O)C(=O)*; Cbz = O=C(OCc1ccccc1)*; Lac = C[C@H](O)C(=O)O; Propionyl = CCC(=O)*; For = O=C*

Columns and labels:
[1] = system: concanavalin A-induced lymphoblasts (Con A splenocytes); assay: Lymphoblast viability (LbV) assay; conditions: therapeutic index
[2] = system: Balb/c splenocytes (resting lymphocytes); assay: Lymphocyte viability (LcV) assay; format: cell-based, murine; conditions: therapeutic index
Description: Forty two (42) didemnin compounds (see Table 1) were evaluated for cytotoxicity to one of the lymphocyte populations in the MLR (i.e., Balb/c splenocytes). The purpose of the lymphocyte viability assay (LcV) is to measure metabolic activity in lymphocytes after they have been exposed to the compounds for the duration of an under conditions equivalent to the MLR. The inverse of the data yields cytotoxicity information about the compounds on murine lymphocytes. The rationale of using resting cells, in this case unstimulated lymphocytes, to measure cytotoxicity has a strategic importance. In the MLR the heterogenous cell populations are predominantly resting cells when the assay begins.
Test compounds were prepared in two sets as described above. Splenocytes were prepared as described previously from one murine strain (Balb/c), and a volume of 200 μL of the cell suspension was added to one set of test compounds and control wells.
Assay plates were incubated as in the MLR and then pulsed overnight 75 μL per well MTT-thiazolyl blue solution (150 μg). The plates were decanted and the resulting insoluble formazan crystals were dissolved in 200 μL of isopropyl alcohol. Absorbance at 570 nm was measured.
The LcV data were calculated as a percentage of basal metabolic activity, or percent viability, relative to BALB/c control, and an LC50 value was interpolated for each test compound.

Compound	ratio LbV (LC50)/MLR (IC50) [1]	ratio LcV (LC50)/MLR (IC50) [2]
CC[C@H](C)[C@H]1NC(=O)[C@@H](NC(=O)[C@@H](CC(C)C)NC)[C@@H](C)OC(=O)[C@H](Cc2ccc(OC)cc2)N(C)C(=O)[C@@H]2CCCN2C(=O)[C@H](CC(C)C)NC(=O)[C@@H](C)C(=O)[C@H](C(C)C)OC(=O)C[C@@H]1OC(C)=O [Compound 7, O-Acetyldidemnin A]	1	100
[Phth-Ala^9 ]DB [Compound 8]		21,000
CC[C@H](C)[C@H]1NC(=O)[C@@H](NC(=O)[C@@H](CC(C)C)N(C)C(=O)[C@@H]2CCCN2C(=O)C(C)=O)[C@@H](C)OC(=O)[C@H](Cc2ccc(OC)cc2)N(C)C(=O)[C@@H]2CCCN2C(=O)[C@H](CC(C)C)NC(=O)[C@@H](C)C(=O)[C@H](C(C)C)OC(=O)C[C@@H]1O [Compound 30, dehydrodidemnin B] (Pyruvoyl-P[dNMeL]T[X1]LP[NMeY](Me); ester 3-C)	< 1	6,800
CC[C@H](C)[C@@H]1NC(=O)[C@@H](NC(=O)[C@@H](CC(C)C)N(C)C(=O)OCc2ccccc2)[C@@H](C)OC(=O)[C@H](Cc2ccc(OC)cc2)N(C)C(=O)[C@@H]2CCCN2C(=O)[C@H](CC(C)C)NC(=O)[C@@H](C)C(=O)[C@H](C(C)C)OC(=O)C[C@@H]1O [Compound 6, Z-[(3S,4S,5S)-Ist^2]Didemnin A] (Cbz-[dNMeL]T[X3]LP[NMeY](Me); ester 2-C)	9	34
Didemnin Y [Compound 42]	2	> 11,000
CC[C@H](C)[C@H]1NC(=O)[C@@H](NC(=O)[C@@H](CC(C)C)N(C)C(=O)[C@@H]2CCCN2C(=O)[C@H](C)O)[C@@H](C)OC(=O)[C@H](Cc2ccc(O)cc2)NC(=O)[C@@H]2CCCN2C(=O)[C@H](CC(C)C)NC(=O)[C@@H](C)C(=O)[C@H](C(C)C)OC(=O)C[C@@H]1O [Compound 13, Didemnin N]	1	> 270
CC[C@H](C)[C@H]1NC(=O)[C@@H](NC(=O)[C@@H](CC(C)C)N(C)C(=O)[C@@H]2CCCN2C(=O)[C@H](C)O)[C@@H](C)OC(=O)[C@H](CC2CCC(OC)CC2)N(C)C(=O)[C@@H]2CCCN2C(=O)[C@H](CC(C)C)NC(=O)[C@@H](C)C(=O)[C@H](C(C)C)OC(=O)C[C@@H]1O (stereo partly drawn) [Compound 15, [H6 Me2 Tyr6]Didemnin B]	2	100
CC[C@H](C)[C@@H]1NC(=O)[C@@H](NC(=O)[C@H](CC(C)C)N(C)C=O)[C@H](C)OC(=O)[C@H](Cc2ccc(OC)cc2)N(C)C(=O)[C@@H]2CCCN2C(=O)[C@H](CC(C)C)NC(=O)[C@@H](C)C(=O)[C@H](C(C)C)OC(=O)C[C@@H]1O [Compound 26, Didemnin G] (For-[NMeL][aThr][X3]LP[NMeY](Me); ester 2-C)	2	> 14,000
CC[C@H](C)[C@H]1NC(=O)[C@@H](NC(=O)[C@@H](CC(C)C)N(C)C(=O)[C@@H]2CCCN2C(=O)[C@H](C)OC(=O)[C@H](CCC(N)=O)NC(=O)[C@H](CCC(N)=O)NC(=O)[C@H](CCC(N)=O)NC(=O)[C@@H]2CCC(=O)N2)[C@@H](C)OC(=O)[C@H](Cc2ccc(OC)cc2)N(C)C(=O)[C@@H]2CCCN2C(=O)[C@H](CC(C)C)NC(=O)[C@@H](C)C(=O)[C@H](C(C)C)OC(=O)C[C@@H]1O [Compound 40, Didemnin D] ([pGlu]QQQ[Lac]P[dNMeL]T[X1]LP[NMeY](Me); ester 8-C)	7	> 50,000
CC[C@H](C)[C@H]1NC(=O)[C@@H](NC(=O)[C@@H](CC(C)C)N(C)C(=O)[C@H](C)NC(=O)[C@H](C)O)[C@@H](C)OC(=O)[C@H](Cc2ccc(OC)cc2)N(C)C(=O)[C@@H]2CCCN2C(=O)[C@H](CC(C)C)NC(=O)[C@@H](C)C(=O)[C@H](C(C)C)OC(=O)C[C@@H]1O [Compound 35, [L-Ala^8]Didemnin B]	2	> 30,000
CC[C@H](C)[C@H]1NC(=O)[C@@H](NC(=O)[C@@H](CC(C)C)NC)[C@@H](C)OC(=O)[C@H](Cc2ccc(OC)cc2)N(C)C(=O)[C@@H]2CCCN2C(=O)[C@H](CC(C)C)NC(=O)[C@@H](C)[C@@H](O)[C@H](C(C)C)OC(=O)C[C@@H]1O [Compound 10, [(2S,3R,4S)-H2 Hip^3]Didemnin A] (H-[dNMeL]T[X4]LP[NMeY](Me); ester 2-C)	16	350
CC[C@H](C)[C@H]1NC(=O)[C@@H](NC(=O)[C@@H](CC(C)C)N(C)C(=O)[C@@H]2CCCN2C(=O)C(C)O)[C@@H](C)OC(=O)[C@H](Cc2ccc(OC)cc2)N(C)C(=O)[C@@H]2CCCN2C(=O)[C@H](CC(C)C)NC(=O)[C@@H](C)C(=O)[C@H](C(C)C)OC(=O)C[C@@H]1O (stereo partly drawn) [Compound 1, didemnin B]	1	15,000
CC[C@H](C)[C@H]1NC(=O)[C@@H](NC(=O)[C@@H](CC(C)C)N(C)C(=O)[C@@H]2CCCN2C(=O)[C@H](C)O)[C@@H](C)OC(=O)[C@H](Cc2ccc(OC)c(I)c2)N(C)C(=O)[C@@H]2CCCN2C(=O)[C@H](CC(C)C)NC(=O)[C@@H](C)C(=O)[C@H](C(C)C)OC(=O)C[C@@H]1O [Compound 14, Iododidemnin B]	1	> 12,000
CCCCCCCCCCCC(=O)N(C)[C@H](CC(C)C)C(=O)N[C@@H]1C(=O)N[C@H]([C@@H](C)CC)[C@@H](O)CC(=O)O[C@@H](C(C)C)C(=O)[C@H](C)C(=O)N[C@@H](CC(C)C)C(=O)N2CCC[C@H]2C(=O)N(C)[C@@H](Cc2ccc(OC)cc2)C(=O)O[C@@H]1C [Compound 24, N^α -Dodecanoyldidemnin A] (Lauroyl-[dNMeL]T[X1]LP[NMeY](Me); ester 2-C)	2	> 84
CC[C@H](C)[C@@H](NC(=O)[C@@H](NC(=O)[C@@H](CC(C)C)NC)[C@@H](C)O)[C@@H](O)CC(=O)O[C@H](C(=O)[C@H](C)C(=O)N[C@@H](CC(C)C)C(=O)N1CCC[C@H]1C(=O)N(C)[C@@H](Cc1ccc(OC)cc1)C(=O)O)C(C)C [Compound 17, Acyclodidemnin A] (H-[dNMeL]T[X1]LP[NMeY](Me)-OH)	436	> 18,000
CC[C@H](C)[C@H]1NC(=O)[C@@H](NC(=O)[C@@H](CC(C)C)N(C)C(=O)[C@H]2CCCN2)[C@@H](C)OC(=O)[C@H](Cc2ccc(OC)cc2)N(C)C(=O)[C@@H]2CCCN2C(=O)[C@H](CC(C)C)NC(=O)[C@@H](C)C(=O)[C@H](C(C)C)OC(=O)C[C@@H]1O [Compound 29, N^α -(D-Pro)-Didemnin A] (H-[dP][dNMeL]T[X1]LP[NMeY](Me); ester 3-C)	2	> 8,000
[Anhydro1st^2 ][Phth-Ala^9 ]DB [Compound 9]		33,000
CC[C@H](C)[C@H]1NC(=O)[C@@H](NC(=O)[C@@H](CC(C)C)N(C)C(C)=O)[C@@H](C)OC(=O)[C@H](Cc2ccc(OC)cc2)N(C)C(=O)[C@@H]2CCCN2C(=O)[C@H](CC(C)C)NC(=O)[C@@H](C)C(=O)[C@H](C(C)C)OC(=O)C[C@@H]1O [Compound 18, N^α -Acetyldidemnin A] (Ac-[dNMeL]T[X1]LP[NMeY](Me); ester 2-C)	14	> 370,000
CC[C@H](C)[C@H]1NC(=O)[C@@H](NC(=O)[C@@H](CC(C)C)N(C)C(=O)[C@@H]2CCCN2C(=O)[C@H](C)O)[C@@H](C)OC(=O)[C@H](Cc2ccc(OC)cc2)N(C)C(=O)[C@@H]2CCCN2C(=O)[C@H](CC(C)C)NC(=O)[C@@H](C)C(=NO)[C@H](C(C)C)OC(=O)C[C@@H]1O [Compound 11, [Hip^3 oxime]Didemnin B]	2	10,000
CCC(=O)N1CCC[C@H]1C(=O)N(C)[C@H](CC(C)C)C(=O)N[C@@H]1C(=O)N[C@H]([C@@H](C)CC)[C@@H](O)CC(=O)O[C@@H](C(C)C)C(=O)[C@H](C)C(=O)N[C@@H](CC(C)C)C(=O)N2CCC[C@H]2C(=O)N(C)[C@@H](Cc2ccc(OC)cc2)C(=O)O[C@@H]1C [Compound 32, [Propionyl^9]Didemnin B] (Propionyl-P[dNMeL]T[X1]LP[NMeY](Me); ester 3-C)	1	8,500
CC[C@@H](C)[C@H]1NC(=O)[C@@H](NC(=O)[C@@H](CC(C)C)N(C)C(=O)OCc2ccccc2)[C@@H](C)OC(=O)[C@H](Cc2ccc(OC)cc2)N(C)C(=O)[C@@H]2CCCN2C(=O)[C@H](CC(C)C)NC(=O)[C@@H](C)C(=O)[C@H](C(C)C)OC(=O)C[C@@H]1O [Compound 5, Z-[(3S,4R,5R)-Ist^2]Didemnin A] (Cbz-[dNMeL]T[X5]LP[NMeY](Me); ester 2-C)	43	33,000
CCCCCCCCCCCCCCCCCC(=O)N(C)[C@H](CC(C)C)C(=O)N[C@@H]1C(=O)N[C@H]([C@@H](C)CC)[C@@H](O)CC(=O)O[C@@H](C(C)C)C(=O)[C@H](C)C(=O)N[C@@H](CC(C)C)C(=O)N2CCC[C@H]2C(=O)N(C)[C@@H](Cc2ccc(OC)cc2)C(=O)O[C@@H]1C [Compound 25, N^α -Octadecanoyldidemnin A] (Stearoyl-[dNMeL]T[X1]LP[NMeY](Me); ester 2-C)	1	> 2 and 2
